PubChem BioAssay AID1259405 – NCATS | 2018
This is an unselected part of about 50,000 reagents. In the full data, about 4,000 (8%) got an active call. 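Mouse siRNA library applied to hamster cells; one well for each siRNA.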 Entries without a mark were called inactive. Reagents against one gene are numbered here.

Screen: 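Knock-downs that lift recombinant protein yield in hamster ovary cells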 (primary screen)
Cells: Chinese hamster CHO-K1 ovary cells with stable secreted eGFP expression
Knock-down reagent: single siRNA against mouse genes, 0.8 pmol siRNA per well (2 µl of 400 nM stock)
Duration: 3 days
Detection: 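Percent of the per-plate non-targeting control median for intracellular GFP per well by laser scanning cytometry and for cell viability by ATP luminescence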
Scale: GFP, % of control: higher = more GFP per well, higher productivity; viability (ATP), % of control: higher = more viable cells (more ATP)
Call rule: 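Called active when intracellular GFP, relative to negative control, is at or above 120%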

gene symbol,reagent no.,"GFP, % of control","viability (ATP), % of control"
Mc2r,1,88.9,78
Mc2r,2,57.2,74.5
Mc2r,3,64.2,30.4
Lrfn4,1,102,98.5
Lrfn4,2,98.7,85.9
Lrfn4,3,72.3,54.7
9330154K18Rik,1,48.4,48.2
9330154K18Rik,2,64.2,76.7
9330154K18Rik,3,87.1,100
Gnaq,1,120 (active),105
Gnaq,2,117,105
Gnaq,3,56.1,24.6
Fbn1,1,175 (active),99.6
Fbn1,2,71.2,73.2
Lamtor2,1,98.9,63.2
Lamtor2,2,101,55.9
Lamtor2,3,70.6,57.9
Ngf,1,33.8,56.2
Ngf,2,108,80.8
Ngf,3,90.1,123
Smarca4,1,96.4,94.8
Smarca4,2,82.2,52.5
Smarca4,3,102,78.5

In a second layout: 3 of the entries above
{"gene symbol":"Lrfn4","reagent no.":1,"GFP, % of control":102,"viability (ATP), % of control":98.5}
{"gene symbol":"Lrfn4","reagent no.":2,"GFP, % of control":98.7,"viability (ATP), % of control":85.9}
{"gene symbol":"Lrfn4","reagent no.":3,"GFP, % of control":72.3,"viability (ATP), % of control":54.7}

The list goes on:
gene symbol,reagent no.,"GFP, % of control","viability (ATP), % of control"
Fjx1,1,60.3,83.2
Fjx1,2,50.2,89.6
Fjx1,3,92.3,75.6
Hrh4,1,156 (active),86.3
Hrh4,2,84.8,91.4
Hrh4,3,72.7,70.2
Prss33,1,60.8,60.7
Prss33,2,24.7,16.1
Prss33,3,74.1,70.1
Dhx35,1,72.4,86.3
Dhx35,2,96.9,92.3
Dhx35,3,56.9,84.7
Npdc1,1,44.7,54.5
Npdc1,2,66.6,83.4
Npdc1,3,62.7,45.1
Slc7a6,1,173 (active),60.5
Slc7a6,2,42.5,38
Slc7a6,3,72.8,69.1
Slc7a6,4,86.9,72.3
Slc7a6,5,99.2,109
Slc7a6,6,91.2,96.1
Slc49a4,1,60.4,85.4
Slc49a4,2,87.7,74.5
Slc49a4,3,85.9,60
Cyp2ab1,1,99.4,68.5
Cyp2ab1,2,77.8,69.4
Cyp2ab1,3,67.5,67.9
Zfp691,1,59.5,57.7
Zfp691,2,73.2,96.4
Vax2,1,49.5,68.4
Vax2,2,46.4,60.5
Sp3os,1,109,88.1
Sp3os,2,39.3,49.2
Sp3os,3,135 (active),70.1
